The target in the test is ferritin heavy chain 1 (FTH1), endogenous in TS^CT cells (human (endogenous in TS^CT cells)) (UniProt P02794). The test is described as follows: affinity purification with mass spectrometry; IP of endogenous FTH1 with anti-FTH1 protein A+G agarose beads from TS^CT cells, control or treated with testosterone for 24 h; SDS-PAGE, in-gel trypsin digestion, LC-MS/MS.

These are yes or no findings as the source states them, for the method shown. In cells and extracts the contact can be indirect. A yes stands for co-enrichment or nearness to the bait. Other partners may have been found.

For the substance “heat shock cognate protein Hsc70 (encoded by HSPA8), endogenous in TS^CT cells (from UniProt P11142 1-646)”, the binding result is reported as “binds”.

The record behind these values is paper PMC12948281.
